Article PMC7560607, “Synapse type-specific proteomic dissection identifies IgSF8 as a hippocampal CA3 microcircuit organizer” (Nature Communications, 2020)
These are yes or no findings as the source states them, for the method shown. For part of these data: In cells and extracts the contact can be indirect. Some results given as binding are weak or reduced against the parent protein; the word gives no strength. For part of these data: Where a sequence is shown, tags or fusion partners need not be part of it. One block for each molecule: values may come before it.

Sequences of proteins named here, by UniProt entry; tags and fusion partners are left off. Residues count along the entry.
UniProt P11627, residues 20-1123: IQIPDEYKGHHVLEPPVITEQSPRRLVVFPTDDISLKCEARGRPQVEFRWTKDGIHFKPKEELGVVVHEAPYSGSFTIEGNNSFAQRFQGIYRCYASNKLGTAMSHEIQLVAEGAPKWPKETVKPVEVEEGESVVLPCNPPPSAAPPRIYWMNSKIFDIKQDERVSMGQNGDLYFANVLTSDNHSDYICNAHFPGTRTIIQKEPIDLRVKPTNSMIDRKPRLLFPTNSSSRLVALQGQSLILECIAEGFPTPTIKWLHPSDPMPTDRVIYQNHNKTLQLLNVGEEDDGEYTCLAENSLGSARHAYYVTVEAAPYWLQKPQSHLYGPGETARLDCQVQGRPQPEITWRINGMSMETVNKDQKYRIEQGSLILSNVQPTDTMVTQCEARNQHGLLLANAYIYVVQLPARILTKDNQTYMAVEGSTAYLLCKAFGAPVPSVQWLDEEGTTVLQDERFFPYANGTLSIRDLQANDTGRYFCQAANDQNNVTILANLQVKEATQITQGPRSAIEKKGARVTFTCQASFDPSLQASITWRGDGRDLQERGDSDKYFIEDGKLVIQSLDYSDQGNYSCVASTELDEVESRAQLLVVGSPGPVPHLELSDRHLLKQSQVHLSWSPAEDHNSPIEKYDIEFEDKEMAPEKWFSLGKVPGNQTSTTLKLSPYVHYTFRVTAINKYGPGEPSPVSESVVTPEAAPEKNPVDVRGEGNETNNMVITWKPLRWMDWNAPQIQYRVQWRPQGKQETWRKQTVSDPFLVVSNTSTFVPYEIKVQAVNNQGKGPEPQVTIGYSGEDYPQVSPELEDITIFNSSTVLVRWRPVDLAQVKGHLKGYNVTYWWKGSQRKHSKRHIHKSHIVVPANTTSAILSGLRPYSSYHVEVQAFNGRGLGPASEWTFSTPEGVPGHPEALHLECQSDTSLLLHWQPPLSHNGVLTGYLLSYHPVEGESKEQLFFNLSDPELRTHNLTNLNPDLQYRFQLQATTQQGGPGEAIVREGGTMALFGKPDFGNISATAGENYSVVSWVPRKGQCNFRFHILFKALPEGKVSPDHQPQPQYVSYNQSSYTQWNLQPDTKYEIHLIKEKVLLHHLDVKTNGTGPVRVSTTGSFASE
UniProt Q810U4, residues 30-1119: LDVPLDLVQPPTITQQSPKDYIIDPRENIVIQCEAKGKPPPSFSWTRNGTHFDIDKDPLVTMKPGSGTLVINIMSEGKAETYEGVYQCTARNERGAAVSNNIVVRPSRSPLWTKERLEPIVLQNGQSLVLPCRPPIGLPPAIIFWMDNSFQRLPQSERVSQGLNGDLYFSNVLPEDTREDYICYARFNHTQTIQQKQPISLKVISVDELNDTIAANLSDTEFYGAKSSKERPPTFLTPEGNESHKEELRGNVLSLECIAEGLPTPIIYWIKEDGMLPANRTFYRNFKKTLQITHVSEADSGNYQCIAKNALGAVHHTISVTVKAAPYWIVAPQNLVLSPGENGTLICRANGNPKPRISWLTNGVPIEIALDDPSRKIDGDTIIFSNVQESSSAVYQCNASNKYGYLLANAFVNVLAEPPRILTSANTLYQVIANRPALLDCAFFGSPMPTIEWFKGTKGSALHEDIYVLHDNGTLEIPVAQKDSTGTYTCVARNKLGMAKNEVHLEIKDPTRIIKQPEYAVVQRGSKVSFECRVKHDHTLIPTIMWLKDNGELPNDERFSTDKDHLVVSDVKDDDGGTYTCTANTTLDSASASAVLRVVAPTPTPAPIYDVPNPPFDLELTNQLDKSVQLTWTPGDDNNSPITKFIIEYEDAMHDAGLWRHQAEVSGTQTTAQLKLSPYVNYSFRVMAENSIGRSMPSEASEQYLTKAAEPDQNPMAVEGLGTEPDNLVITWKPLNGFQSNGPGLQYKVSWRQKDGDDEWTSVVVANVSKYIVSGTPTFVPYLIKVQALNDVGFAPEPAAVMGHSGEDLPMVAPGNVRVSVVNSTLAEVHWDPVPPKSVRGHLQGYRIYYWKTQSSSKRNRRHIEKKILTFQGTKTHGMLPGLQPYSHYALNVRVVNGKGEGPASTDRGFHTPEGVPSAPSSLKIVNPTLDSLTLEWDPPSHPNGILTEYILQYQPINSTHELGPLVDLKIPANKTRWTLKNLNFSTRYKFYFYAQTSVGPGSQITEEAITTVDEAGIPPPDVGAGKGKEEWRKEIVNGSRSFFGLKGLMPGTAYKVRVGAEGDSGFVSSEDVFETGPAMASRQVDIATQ

What was measured:
[1] = target: L1CAM ectodomain (Fc and AP fusions) (not stated (human or mouse ectodomain sequences)) (UniProt P11627); assay: ELISA; 384-well pairwise screen; ecto-AP fusion captured on plate by anti-AP antibody, ecto-Fc fusion detected with anti-human IgG1-HRP; conditioned media, 4 h RT; both orientations; positive: OD650 > 5-fold over background, detected at least twice in three experiments
[2] = target: T1, Neurofascin ectodomain (Fc and AP fusions) (not stated (human or mouse ectodomain sequences)) (UniProt Q810U3); assay: as above
T1 sequence: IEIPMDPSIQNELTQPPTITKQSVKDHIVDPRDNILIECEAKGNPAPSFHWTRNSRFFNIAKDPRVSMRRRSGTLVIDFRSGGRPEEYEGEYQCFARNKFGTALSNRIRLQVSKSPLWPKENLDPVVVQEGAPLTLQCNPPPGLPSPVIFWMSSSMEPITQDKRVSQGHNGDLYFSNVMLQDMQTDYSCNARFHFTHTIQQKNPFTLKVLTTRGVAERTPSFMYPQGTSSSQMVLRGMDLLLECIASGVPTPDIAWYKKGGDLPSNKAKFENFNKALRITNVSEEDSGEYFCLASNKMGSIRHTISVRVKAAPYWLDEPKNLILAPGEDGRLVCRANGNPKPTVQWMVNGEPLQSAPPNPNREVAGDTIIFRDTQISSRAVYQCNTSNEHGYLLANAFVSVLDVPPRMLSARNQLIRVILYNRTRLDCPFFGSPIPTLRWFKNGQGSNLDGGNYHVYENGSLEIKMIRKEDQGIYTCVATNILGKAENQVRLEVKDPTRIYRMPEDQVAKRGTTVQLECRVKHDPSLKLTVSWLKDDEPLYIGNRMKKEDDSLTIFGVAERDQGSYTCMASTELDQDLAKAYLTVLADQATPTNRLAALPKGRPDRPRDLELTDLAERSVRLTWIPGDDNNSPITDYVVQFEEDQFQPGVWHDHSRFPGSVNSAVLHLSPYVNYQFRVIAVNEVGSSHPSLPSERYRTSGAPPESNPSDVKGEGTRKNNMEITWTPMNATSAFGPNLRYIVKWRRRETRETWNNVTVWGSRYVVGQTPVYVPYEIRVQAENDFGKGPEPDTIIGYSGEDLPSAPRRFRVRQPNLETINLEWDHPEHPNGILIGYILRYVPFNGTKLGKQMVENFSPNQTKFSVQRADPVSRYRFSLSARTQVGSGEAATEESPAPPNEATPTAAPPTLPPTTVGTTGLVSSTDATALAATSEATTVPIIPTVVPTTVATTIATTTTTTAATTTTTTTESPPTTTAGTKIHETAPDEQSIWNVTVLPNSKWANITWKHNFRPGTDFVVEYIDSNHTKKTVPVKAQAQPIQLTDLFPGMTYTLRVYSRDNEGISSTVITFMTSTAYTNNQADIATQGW

[3] = target: NCAM2 ectodomain (Fc and AP fusions) (not stated (human or mouse ectodomain sequences)) (UniProt O35136); assay: as above
[4] = target: ALCAM ectodomain (Fc and AP fusions) (not stated (human or mouse ectodomain sequences)) (UniProt Q61490); assay: as above
[5] = target: T2, IgSF8-Fc (not stated (human or mouse ectodomain sequences)) (UniProt Q8R366); assay: pull-down; 3 ug purified Fc fusion added to 1 ml RIPA lysate of transfected HEK293T cells, overnight 4 °C, Protein-A agarose beads, western blot with anti-GFP; only the target purified
T2 sequence: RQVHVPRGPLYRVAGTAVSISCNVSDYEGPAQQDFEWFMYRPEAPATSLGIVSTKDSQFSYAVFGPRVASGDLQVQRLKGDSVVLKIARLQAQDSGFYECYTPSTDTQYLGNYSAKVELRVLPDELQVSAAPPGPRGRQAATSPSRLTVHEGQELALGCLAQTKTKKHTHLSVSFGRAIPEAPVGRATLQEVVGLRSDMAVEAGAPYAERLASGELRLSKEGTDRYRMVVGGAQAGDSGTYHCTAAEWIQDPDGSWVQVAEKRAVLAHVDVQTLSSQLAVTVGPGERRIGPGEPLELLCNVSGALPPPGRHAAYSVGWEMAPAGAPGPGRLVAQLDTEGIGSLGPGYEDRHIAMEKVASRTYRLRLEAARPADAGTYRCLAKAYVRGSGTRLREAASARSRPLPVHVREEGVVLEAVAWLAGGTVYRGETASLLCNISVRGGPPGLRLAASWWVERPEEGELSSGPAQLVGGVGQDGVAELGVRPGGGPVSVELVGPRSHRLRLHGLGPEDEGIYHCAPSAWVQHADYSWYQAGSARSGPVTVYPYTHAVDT

[6] = target: T3, LGI1 (Fc and AP fusions) (not stated (human or mouse sequences)) (UniProt Q9JIA1); assay: ELISA; 384-well pairwise screen; ecto-AP fusion captured on plate by anti-AP antibody, ecto-Fc fusion detected with anti-human IgG1-HRP; conditioned media, 4 h RT; both orientations; positive: OD650 > 5-fold over background, detected at least twice in three experiments
T3 sequence: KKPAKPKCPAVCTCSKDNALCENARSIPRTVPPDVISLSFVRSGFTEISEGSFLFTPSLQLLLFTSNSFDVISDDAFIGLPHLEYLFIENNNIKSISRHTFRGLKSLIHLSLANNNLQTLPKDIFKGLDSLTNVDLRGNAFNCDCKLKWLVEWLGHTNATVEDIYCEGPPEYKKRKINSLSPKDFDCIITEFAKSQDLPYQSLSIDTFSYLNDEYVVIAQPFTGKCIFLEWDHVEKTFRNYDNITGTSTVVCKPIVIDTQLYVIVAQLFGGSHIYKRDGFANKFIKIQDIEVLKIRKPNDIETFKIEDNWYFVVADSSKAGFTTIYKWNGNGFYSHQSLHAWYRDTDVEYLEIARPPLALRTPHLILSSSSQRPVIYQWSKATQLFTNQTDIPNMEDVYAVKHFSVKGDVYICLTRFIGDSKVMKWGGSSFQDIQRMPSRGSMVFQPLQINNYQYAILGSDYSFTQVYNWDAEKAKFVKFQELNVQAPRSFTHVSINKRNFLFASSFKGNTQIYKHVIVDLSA

binding [1]: binds
Molecule: L1CAM ectodomain (Fc and AP fusions) (from UniProt P11627 20-1123) (domain or fragment)

binding [2]: binds
Molecule: NrCAM ectodomain (Fc and AP fusions) (from UniProt Q810U4 30-1119) (domain or fragment)

binding [3]: binds
B1: NCAM2 ectodomain (Fc and AP fusions) (domain or fragment, UniProt O35136 20-697)
chain: LLQVTISLSKVELSVGESKFFTCTAIGEPESIDWYNPQGEKIISTQRVMLQKEGVRSRLTIYNANIEDAGIYRCQATDAKGQTQEATVVLEIYQKLTFREVVSPQEFKQGEDAEVVCRVSSSPAPAVSWLYHNEEVTTIPDNRFAVLANNNLQILNINKSDEGIYRCEGRVEARGEIDFRDIIVIVNVPPAIMMPQKSFNATAERGEEMTLTCKASGSPDPTISWFRNGKLIEENEKYILKGSNTELTVRNIINKDGGSYVCKATNKAGEDQKQAFLQVFVQPHILQLKNETTSENGHVTLVCEAEGEPVPEITWKRAIDGVMFSEGDKSPDGRIEVKGQHGRSSLHIRDVKLSDSGRYDCEAASRIGGHQRSMHLDIEYAPKFVSNQTMYYSWEGNPINISCDVTANPPASIHWRREKLLLPAKNTTHLKTHSVGRKMILEIAPTSDNDFGRYNCTATNRIGTRFQEYILELADVPSSPHGVKIIELSQTTAKISFNKPESHGGVPIHHYQVDVKEVASETWKIVRSHGVQTMVVLSSLEPNTTYEIRVAAVNGKGQGDYSKIEIFQTLPVREPSPPSIHGQPSSGKSFKISITKQDDGGAPILEYIVKYRSKDKEDQWLEKKVQGNKDHIILEHLQWTMGYEVQITAANRLGYSEPTVYEFSMPPKPNIIKDTLFN

binding [4]: binds
B2: ALCAM ectodomain (Fc and AP fusions) (domain or fragment, UniProt Q61490 28-527)
chain: WYTVNSAYGDTIVMPCRLDVPQNLMFGKWKYEKPDGSPVFIAFRSSTKKSVQYDDVPEYKDRLSLSENYTLSIANAKISDEKRFVCMLVTEDNVFEAPTLVKVFKQPSKPEIVNKAPFLETDQLKKLGDCISRDSYPDGNITWYRNGKVLQPVEGEVAILFKKEIDPGTQLYTVTSSLEYKTTRSDIQMPFTCSVTYYGPSGQKTIYSEQEIFDIYYPTEQVTIQVLPPKNAIKEGDNITLQCLGNGNPPPEEFMFYLPGQPEGIRSSNTYTLTDVRRNATGDYKCSLIDKRNMAASTTITVHYLDLSLNPSGEVTKQIGDTLPVSCTISASRNATVVWMKDNIRLRSSPSFSSLHYQDAGNYVCETALQEVEGLKKRESLTLIVEGKPQIKMTKKTDPSGLSKTIICHVEGFPKPAIHWTITGSGSVINQTEESPYINGRYYSKIIISPEENVTLTCTAENQLERTVNSLNVSAISIPEHDEADDISDENREKVNDQAK

binding [5]: binds
B3: Tenascin-R-EGFP (protein, UniProt Q8BYI9 32-1358)
chain: RLEVTTERAQRQTVEEEGGASSYNTSSKEQPMVFNHVYNINVPLESLCSSGLEASAEQDMSAEDDTLAEYIGQTSDHESQVTFTHKINLPKKACPCASSSQVLQELLSRIEMLEREVSLLRDQCNTNCCQESAATGQLDYVPHCSGHGNFSFESCGCICNEGWFGKNCSEPYCPLGCSSRGVCVDGQCICDSEYSGDDCSELRCPTDCSSRGLCVDGECVCEEPYTGEDCRELRCPGDCSGKGQCANGTCLCQEGYAGEDCSQRRCLNACSGRGHCQEGLCICEEGYQGPDCSAVAPPEDLRVAGISDRSIELEWDGPMAVTEYVISYQPTALGGLQLQQRVPGDWSGVTIMELEPGLTYNISVYAVISNILSLPITAKVATHLSTPQGLQFKTITETTVEVQWEPFSFSFDGWEISFIPKNNEGGVIAQLPSDVTSFNQTGLKPGEEYIVNVVALKEQARSPPTSASVSTVIDGPTQILVRDVSDTVAFVEWTPPRAKVDFILLKYGLVGGEGGKTTFRLQPPLSQYSVQALRPGSRYEVSISAVRGTNESEASSTQFTTEIDAPKNLRVGSRTATSLDLEWDNSEAEAQEYKVVYSTLAGEQYHEVLVPKGIGPTTKTTLTDLVPGTEYGVGISAVMNSKQSIPATMNARTELDSPRDLMVTASSETSISLIWTKASGPIDHYRITFTPSSGISSEVTVPRDRTSYTLTDLEPGAEYIISITAERGRQQSLESTVDAFTGFRPISHLHFSHVTSSSVNITWSDPSPPADRLILNYSPRDKEEDMLEVLLDATKRHAVLMGLQPATEYIVNLVAVHGTVTSEPIVGSITTGIDPPKNITISNVTKDSLTVSWSSPVAPFDYYRVSYRPTQVGRLDSSVVPNTVTEFAITRLYPATEYEISLNSVRGREESERICTLVHTAMDSPMDLIATNITPTEALLQWKAPMGEVENYVIVLTHFAIAGETILVDGVSEEFQLVDLLPSTHYTVTMYATSGPLMSGTIATNFSTLLDPPDNLTASEVTRQSALISWQPPRAAIENYVLTYKSTDGSRKELIVDAEDTWIRLEGLSENTDYTVLLQAAQEATRSSLTSTVFTTGGRVFSHPQDCAQHLMNGDTLSGVYTIFLNGELSHKLQVYCDMTTDGGGWIVFQRRQNGQTDFFRKWADYRVGFGNLEDEFWLGLDNIHRITAQGRYELRVDMRDGQEAVFAYYDKFAVEDSRSLYKIRIGSYNGTAGDSLSYHQGRPFSTEDRDNDVAVTNCAMSYKGAWWYKNCHRTNLNGKYGESRHSQGINWYHWKGHEFSIPFVEMKMRPYIHRLTAGRKRRALKF

binding [6]: binds
B4: ADAM11 ectodomain (Fc and AP fusions) (domain or fragment, UniProt Q9R1V4 230-738)
chain: QVRRGHPTVHSETKYVELIVINDHQLFEQMRQSVVLTSNFAKSVVNLADVIYKEQLNTRIVLVAMETWADGDKIQVQDDLLETLARLMVYRREGLPEPSDATHLFSGRTFQSTSSGAAYVGGICSLSRGGGVNEYGNMGAMAVTLAQTLGQNLGMMWNKHRSSAGDCKCPDIWLGCIMEDTGFYLPRKFSRCSIDEYNQFLQEGGGSCLFNKPLKLLDPPECGNGFVEAGEECDCGSVQECSRAGGNCCKKCTLTHDAMCSDGLCCRRCKYEPRGVSCREAVNECDIAETCTGDSSQCPPNLHKLDGYYCDHEQGRCYGGRCKTRDRQCQALWGHAAADRFCYEKLNVEGTERGNCGRKGSGWVQCSKQDVLCGFLLCVNISGAPRLGDLGGDISSVTFYHQGKELDCRGGHVQLADGSDLSYVEDGTACGPNMLCLDHRCLPASAFNFSTCPGSGERRICSHHGVCSNEGKCICQPDWTGKDCSIHNPLPTSPPTGETERYKGPSGTN
